Measurements as given in PMC10140173.
Results are given in words; binding and its absence hold for the method and conditions named. Binding seen in cells or lysates may run through a third protein. Some binding calls cover weakened binding; strength is not graded here.

Target: T1, White Collar 2 (WC-2) (Neurospora crassa (endogenous in Neurospora)) (UniProt P78714)
T1 sequence: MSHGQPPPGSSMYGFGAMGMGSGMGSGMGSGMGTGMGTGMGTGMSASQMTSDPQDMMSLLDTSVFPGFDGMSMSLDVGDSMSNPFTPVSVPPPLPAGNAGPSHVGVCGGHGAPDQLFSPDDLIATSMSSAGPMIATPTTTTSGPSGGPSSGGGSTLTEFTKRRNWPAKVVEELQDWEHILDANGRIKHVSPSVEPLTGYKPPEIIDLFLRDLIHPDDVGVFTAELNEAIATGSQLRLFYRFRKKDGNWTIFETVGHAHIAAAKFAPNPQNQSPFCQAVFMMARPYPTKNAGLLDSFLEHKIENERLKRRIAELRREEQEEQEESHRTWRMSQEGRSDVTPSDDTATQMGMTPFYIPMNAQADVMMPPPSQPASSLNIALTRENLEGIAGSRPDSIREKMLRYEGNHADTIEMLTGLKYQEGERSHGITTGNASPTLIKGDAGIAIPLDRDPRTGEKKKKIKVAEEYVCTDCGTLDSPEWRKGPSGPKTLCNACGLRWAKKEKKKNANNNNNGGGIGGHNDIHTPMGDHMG
Experiment: co-IP; immunoprecipitation with WC-2 antiserum from extracts of the l-frq and s-frq strains grown at 20 °C and 30 °C; preimmune serum as control

binding: binds
B1: small FRQ (s-FRQ), FREQUENCY protein isoform lacking the N-terminal 99 aa (protein, UniProt P19970 100-989)
chain: MEVDPPFYQKETDSSNEESRYPPGRNPVHPPGGVQLPGFRPVAAHSSAADDYRSVIDDLTVENKRLKEELKRYKQFGSDVMRKEKLFEIKVHGLPRRKKRELEATLRDFAASLGDSSESTSQRRKTGRHGTAVHSSGVSLSKHDSSSSSRSRPVDSAYNSMSTGRSSHAPHSSGPSLGRPSLTRAKSVGTQKVENYLRDTPDGLLPHHIVMTDKEKKKLVVRRLEQLFTGKISGRNMQRNQSMPSMDAPLAPEGTNMAPPRPPPEGLREACIQLQDGDNPRKNRSSKDNGSASNSGGDQTELGGTGTGSGDGSGSGGRTGNNTSPPGAIAPDQRPTRPRDLDPDRVQIPSENMDYIRHLGLVSPEFLQGSRTSYQDVAPDAEGWVYLNLLCNLAQLHMVNVTPSFIRQAVSEKSTKFQLSADGRKIRWRGGTDGTKFSSDSSEDKSQQSPMTEDTEDGSDKNGRRKKRKTQQASSEIGRFGPSRSPSDTFHYKPMFVHRNSSSIETSLEESMSQGSEDAVDESNMGNSKWDFSGSGTTQQRRKRRYDGAIVYYTGAPFCTDLSGDPGDMSPTAQMTAGREVEGSGSGDEVEHVLQRTLSGSSLPIRPLSDDRARVAEVLDFDPGNPPELVADDGSSPNDEDFVFPWCEDPAKVRIQPIAKEVMEPSGLGGVLPDDHFVMLVTTRRVVRPILQRQLSRSTTSEDTAEFIAERLAAIRTSSPLPPRSHRLTVAPLQVEYVSGQFRRLNPAPLPPPAIFYPPFSTDSSWDDGDDLASDDEEVEEVEEDSYSEGQISRRANPHFSDNNTYMRKDDLAFDTETDVRMDSDDNRLSDSGHNMRAMMPRAEAVDGDDSPLAAVTGKEVDMLHTGSSVATAGGAESGYSSSMEDVSSS
